# Experimental data reported in patent US20250101134A1, “ANAPLASTIC LYMPHOMA KINASE ANTIBODIES AND METHODS OF USE THEREOF” (The Children's Hospital of Philadelphia, priority 2022, published 2025).
# Protein sequences, listed by entry. Tags and fused reporters are not part of them. Lines headed by an entry give the natural chain unless they say otherwise; changes in a name come on top.
# UniProt Q9UM73: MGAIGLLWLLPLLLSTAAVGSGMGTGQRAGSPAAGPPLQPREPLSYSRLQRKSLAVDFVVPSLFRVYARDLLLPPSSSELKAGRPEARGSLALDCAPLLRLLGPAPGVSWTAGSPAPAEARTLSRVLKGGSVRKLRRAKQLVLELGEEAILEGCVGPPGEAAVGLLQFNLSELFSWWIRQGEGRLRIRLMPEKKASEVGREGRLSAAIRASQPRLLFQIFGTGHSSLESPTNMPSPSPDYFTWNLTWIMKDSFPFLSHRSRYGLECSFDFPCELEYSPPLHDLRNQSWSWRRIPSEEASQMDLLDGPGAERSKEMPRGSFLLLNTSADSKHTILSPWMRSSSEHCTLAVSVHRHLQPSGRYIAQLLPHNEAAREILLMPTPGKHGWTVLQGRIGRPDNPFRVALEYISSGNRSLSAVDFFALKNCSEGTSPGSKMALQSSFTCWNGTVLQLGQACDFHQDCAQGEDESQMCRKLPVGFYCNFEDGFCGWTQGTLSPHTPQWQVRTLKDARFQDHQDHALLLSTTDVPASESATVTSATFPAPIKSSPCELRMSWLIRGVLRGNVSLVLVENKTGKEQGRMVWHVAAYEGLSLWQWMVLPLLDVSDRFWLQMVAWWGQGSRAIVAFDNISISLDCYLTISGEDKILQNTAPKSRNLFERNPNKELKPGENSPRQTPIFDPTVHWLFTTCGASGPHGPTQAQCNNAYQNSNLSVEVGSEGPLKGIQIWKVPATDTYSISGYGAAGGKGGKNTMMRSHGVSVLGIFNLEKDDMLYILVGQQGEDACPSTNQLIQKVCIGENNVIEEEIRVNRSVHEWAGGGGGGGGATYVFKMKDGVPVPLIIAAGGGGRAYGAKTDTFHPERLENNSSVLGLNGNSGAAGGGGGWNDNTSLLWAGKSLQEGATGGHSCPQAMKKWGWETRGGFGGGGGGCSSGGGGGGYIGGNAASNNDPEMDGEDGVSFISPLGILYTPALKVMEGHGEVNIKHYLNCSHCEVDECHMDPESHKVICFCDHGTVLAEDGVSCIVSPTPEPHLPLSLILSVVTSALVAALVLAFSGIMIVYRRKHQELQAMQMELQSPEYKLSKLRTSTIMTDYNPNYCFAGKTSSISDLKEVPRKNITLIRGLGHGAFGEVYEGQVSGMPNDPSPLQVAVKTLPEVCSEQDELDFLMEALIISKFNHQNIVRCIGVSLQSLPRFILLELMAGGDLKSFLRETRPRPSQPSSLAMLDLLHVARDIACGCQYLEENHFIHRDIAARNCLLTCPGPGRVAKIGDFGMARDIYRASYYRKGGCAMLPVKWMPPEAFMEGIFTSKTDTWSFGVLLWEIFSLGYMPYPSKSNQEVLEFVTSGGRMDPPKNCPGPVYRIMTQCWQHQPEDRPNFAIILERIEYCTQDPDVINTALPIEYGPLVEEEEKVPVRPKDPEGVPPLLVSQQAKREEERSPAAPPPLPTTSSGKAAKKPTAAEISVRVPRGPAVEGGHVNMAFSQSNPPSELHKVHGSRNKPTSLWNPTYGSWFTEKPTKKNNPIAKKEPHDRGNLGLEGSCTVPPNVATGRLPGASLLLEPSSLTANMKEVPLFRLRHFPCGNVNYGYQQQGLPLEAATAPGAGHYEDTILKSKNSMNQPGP
# No constants are given. Whether binding was seen depends on the method and setting. Some entries that bind do so weakly or less than the wild type.
# B1: VH20 (other)
# VH: EVQLVESGGGVVQPGRSLRLSCAASGFTFSSYAMHWVRQAPGKGLEWVAAIWYDGSNQYYADSVKGRFTISRDDSTNTLYLQMNSLRAEDTALYYCAKSSYYDSSGYYFPYGYWGQGTLVTVSS
# notes: Single-domain antibody (isolated VH domain) found by phage panning on the ALK G-rich domain antigen; For the internalization assay it was labelled with pHrodo Deep Red dye
# Experiments:
# [1] = molecular target: cell surface ALK on neuroblastoma cells (IMR32, SY5Y-D3, SY5Y) (human) (UniProt Q9UM73); experiment: flow cytometry, 1 uM VH20, anti-Flag-PE detection
# [2] = molecular target: ALK extracellular domain expressed on the cell surface of 293T cells (293T-ALK) (Homo sapiens, UniProt Q9UM73); experiment: flow cytometry, 1 uM VH on 293T-ALK cells, anti-FLAG-PE detection
binder,measurement,setting,value
B1,binding,[1],binds
same,binding,[2],binds
